We go through 24 sequences from the supplement of paper PMC10338343.

± gives the standard deviation. This is a selection; strong and weak results do not stand in their true shares. Many of these values have a large error.
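Further: 1 nM active piRISC with 0.1 nM target library at 33 °C single turnover.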

The test system of this test is MIWI (PIWIL1) piRISC loaded with L1MC piRNA (30 nt). Nature of the test: pre-steady-state target cleavage rate (min^-1); MIWI and MILI are mouse PIWI proteins and EfPiwi is from a freshwater sponge; tags in brackets are library labels; higher = faster piRNA-guided slicing of the target. The settings on record: guide: L1MC piRNA 5'p-UAACUAAAUACUAUGCAAGCUGUAGGUCCU; auxiliary factor: 500 nM mouse GTSF1. In outline: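 For Cleave-'n-Seq, a transcribed, DNA-blocked target RNA library […] met 1 nM active affinity-purified piRISC with one synthetic guide at 33 °C for 0–8 or 0–960 min in HEPES–potassium acetate buffer, with or without 500 nM GTSF1 partner protein. Uncleaved targets were sequenced and normalised to depth and weakly complementary targets, with three trials pooled and k3 capped at 0.0001 min^-1. A burst-and-steady-state fit supplied the pre-steady-state cleavage rate.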
On to AGGACCAACAGCUUGCAUUGUAUUUAGUUA, for which the “pre-steady-state target cleavage rate” value is 0.923 ± 0.044.
As for UCGACCUACUGCUUGCAAAGUAUUUAGUUA, the figure is 1.33 ± 0.037.
To AGGACCUACAGCUUGCUAUAGUAUUUAGUUA belongs 0.137 ± 0.037.
To UCGACCUUCAGCUUCCAUAGUAUUUAGUUA belongs 0.0473 ± 0.011; to UGCUGCUACAGCUUGCAUAGUAUUUAGUUA, 1.55 ± 0.058; to UGGACCUACAGCUUGCUAUGUAUUUAGUUA, 0.115 ± 0.016.
UGGUCCAACAGCUUGCAUAGUAUUUAGUUA: the “pre-steady-state target cleavage rate” value came to 0.852 ± 0.034.
As for UGGACCAACAGCUUGCAAAGUAUUUAGUUA, the figure is 1.38 ± 0.062; as for UCGACCUACACGCUUGCAUAGUAUUUAGUUA, 1.23 ± 0.063.
As for AGGACCUACAGCUUGCUUAGUAUUUAGAAA, the figure is 0.486 ± 0.063.
As for UGGACCUGACAGCUUGCAUAGUAUUUAGUUA, the figure is 1.56 ± 0.12; as for AGGCCUACAGCUUGCAUAGUAUUUAGUUA, 1.41 ± 0.075.
UCCACGAUCAGCUUGCAUAGUAUUUAGUUA: the “pre-steady-state target cleavage rate” value turned out to be 1.55 ± 0.058.
To AGGCCCUACAGCUUGCAUAGUAUUUAGUUA belongs 1.15 ± 0.058; to UGGACCUACAGCUUGGUAAGUAUUUUCAAA, 0.000219 ± 0.014.
To UGGACCUACAGCUUGCAUAGAAUUUUCAAA belongs 0.239 ± 0.048; to AGCACCUACACCUUGCAUAGUAUUUAGUUA, 0.739 ± 0.074; to UGGACCUACAGCUUGCAUAGUAUUUCAGUUA, 0.468 ± 0.06.
To UCGACCUACAGGUUGCAUAGUAUUUACUUA belongs 0.296 ± 0.04; to UGGACCUACAGCUUCCAUAGUAUUUACUUA, 0.00345 ± 0.0045; to UGGACCUACAACUUGCAUAGUAUUUAGUUA, 1.5 ± 0.062.
For UGGACGUUCAGCUUGCAUAGUAUUUAGUUA, the “pre-steady-state target cleavage rate” value was found to be 1.37 ± 0.052.
To AGGACCUACGAGCUUGCAUAGUAUUUAGUUA belongs 0.726 ± 0.086; to UGCUCCUACAGCUUGCAUAGUAUUUAGAAA, 0.429 ± 0.033.
